Reference: the supplement of paper PMC4604168 (melanoma cell lines)
Some of the results follow. Repeats are few or missing, and single values can be far off.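 Cells were imaged in 1,536-well plates, and nuclei stained with an antibody against cleaved PARP were counted against all DNA-stained nuclei to give the apoptosis fraction. Screening doses were chosen to leave most cells alive, and resting and induced cleaved-PARP levels differ strongly between cell lines.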

How the values were obtained:
Assay in all cases: cleaved PARP positive nuclei fraction relative to DMSO control; melanoma cells; higher = more apoptosis
Conditions in all cases: library dose: low library concentration; 72 h
MZ2-MEL = tested on: MZ2-MEL
MeWo = tested on: MeWo
RPMI7951 = tested on: RPMI7951
RVH-421 = tested on: RVH-421
SkMel28 = tested on: SkMel28
SkMel2 = tested on: SkMel2
SkMel30 = tested on: SkMel30
SkMel5 = tested on: SkMel5
UACC257 = tested on: UACC257
UACC62 = tested on: UACC62

| Structure (SMILES) | cleaved PARP positive nuclei fraction (MZ2-MEL) [%] | cleaved PARP positive nuclei fraction (MeWo) [%] | cleaved PARP positive nuclei fraction (RPMI7951) [%] | cleaved PARP positive nuclei fraction (RVH-421) [%] | cleaved PARP positive nuclei fraction (SkMel28) [%] | cleaved PARP positive nuclei fraction (SkMel2) [%] | cleaved PARP positive nuclei fraction (SkMel30) [%] | cleaved PARP positive nuclei fraction (SkMel5) [%] | cleaved PARP positive nuclei fraction (UACC257) [%] | cleaved PARP positive nuclei fraction (UACC62) [%] |
| --- | --- | --- | --- | --- | --- | --- | --- | --- | --- | --- |
| CCN(CC)CCNC(=O)c1c(C)[nH]c(/C=C2\C(=O)Nc3ccc(F)cc32)c1C [sunitinib] + Cn1cc(/C=C2\C(=O)Nc3cccnc32)c2ccccc21 [GW441756] (first compound 0.4 µM, partner dose 0.4 µM) | 103 | 147 | 143 | 26.6 | 204 | 57.1 | 245 | 86.9 | 191 | 103 |
| Cn1sc(=O)n(Cc2ccccc2)c1=O + C=CCn1c(=O)c2cnc(Nc3ccc(N4CCN(C)CC4)cc3)nc2n1-c1cccc(C(C)(C)O)n1 [MK1775] (first compound 0.4 µM, partner dose 0.02 µM) | 147 | 62.8 | 58.7 | 163 | 39.6 | 82.2 | 75.1 | 185 | 691 | 97.9 |
| CC(=O)O[C@@]12CO[C@@H]1C[C@H](O)[C@@]1(C)C(=O)[C@H](O)C3=C(C)[C@@H](OC(=O)[C@H](O)[C@@H](NC(=O)OC(C)(C)C)c4ccccc4)C[C@@](O)([C@@H](OC(=O)c4ccccc4)[C@H]21)C3(C)C [Docetaxel] + Cc1cc(N2CCOCC2)cc2[nH]c(-c3c(NC[C@@H](O)c4cccc(Cl)c4)cc[nH]c3=O)nc12 [BMS536924] (first compound 0.0001 µM, partner dose 0.2 µM) | 389 | 364 | 342 | 200 | 464 | 442 | 258 | 317 | 147 | 662 |
| CS(=O)(=O)c1ccc(C(=O)Nc2ccc(Cl)c(-c3ccccn3)c2)c(Cl)c1 [vismodegib] + O=C1NC(=O)/C(=C/c2ccc(-c3ccc(F)cc3O)o2)S1 [AS252424] (first compound 1 µM, partner dose 1 µM) | 128 | 56.7 | 75.4 | 91.3 | 33.1 | 39.6 | 54.5 | 77.1 | 207 | 101 |
| C[C@@H](N)c1ccc(C(=O)Nc2ccnc3[nH]ccc23)cc1 + O=S(=O)(c1ccccc1)N(CC(F)(F)F)c1ccc(C(O)(C(F)(F)F)C(F)(F)F)cc1 [T0901317] (first compound 0.4 µM, partner dose 1.4 µM) | 186 | 196 | 57.6 | 155 | 84.7 | 84.2 | 199 | 219 | 164 | 182 |
| CN(c1ncccc1CNc1nc(Nc2ccc3c(c2)CC(=O)N3)ncc1C(F)(F)F)S(C)(=O)=O + OCCn1cc(-c2cnc3nnn(Cc4ccc5ncccc5c4)c3n2)cn1 [PF04217903] (first compound 0.08 µM, partner dose 1 µM) | 196 | 106 | 209 | 37 | 121 | 100 | 74.6 | 106 | 79.1 | 237 |
| CN(c1ncccc1CNc1nc(Nc2ccc3c(c2)CC(=O)N3)ncc1C(F)(F)F)S(C)(=O)=O + COc1ccc2c(c1)CCC1C2CCC2(C)C(NCCCCCCN3C(=O)C=CC3=O)CCC12 [U73122] (first compound 0.08 µM, partner dose 0.4 µM) | 31.1 | 109 | 107 | 111 | 39.5 | 164 | 31.7 | 90 | 191 | 87.7 |
| Cn1cnc2c(F)c(Nc3ccc(Br)cc3Cl)c(C(=O)NOCCO)cc21 [selumetinib] + COC(=O)c1sccc1S(=O)(=O)Nc1ccc(Nc2ccccc2)cc1OC [GSK0660] (first compound 0.015 µM, partner dose 1 µM) | 141 | 122 | 150 | 132 | 143 | 81 | 85.2 | 66.6 | 258 | 198 |
| CCN(CC)CCNC(=O)c1c(C)[nH]c(/C=C2\C(=O)Nc3ccc(F)cc32)c1C [sunitinib] + COc1cc2ncnc(Nc3ccc(Oc4ccccc4)cc3)c2cc1OC [SrcI1] (first compound 0.4 µM, partner dose 2 µM) | 94.7 | 183 | 96.9 | 71.4 | 134 | 90.4 | 46.1 | 116 | 221 | 109 |
| COc1ccc(C2=N[C@@H](c3ccc(Cl)cc3)[C@@H](c3ccc(Cl)cc3)N2C(=O)N2CCNC(=O)C2)c(OC(C)C)c1 [Nutlin-3] + Cn1cncc1[C@@](N)(c1ccc(Cl)cc1)c1ccc2c(c1)c(-c1cccc(Cl)c1)cc(=O)n2C [tipifarnib] (first compound 0.1 µM, partner dose 0.01 µM) | 105 | 50.7 | 35 | 141 | 85.6 | 162 | 162 | 66.5 | 183 | 188 |
| Cn1cnc2c(F)c(Nc3ccc(Br)cc3Cl)c(C(=O)NOCCO)cc21 [selumetinib] + O=S(=O)(c1ccccc1)N(CC(F)(F)F)c1ccc(C(O)(C(F)(F)F)C(F)(F)F)cc1 [T0901317] (first compound 0.015 µM, partner dose 1.4 µM) | 93.8 | 54.9 | 151 | 334 | 94.2 | 46.3 | 38 | 66.8 | 160 | 256 |
| NC1(c2ccc(-c3nc4ccn5c(=O)[nH]nc5c4cc3-c3ccccc3)cc2)CCC1 + OCCn1cc(-c2cnc3nnn(Cc4ccc5ncccc5c4)c3n2)cn1 [PF04217903] (first compound 0.4 µM, partner dose 1 µM) | 99.9 | 81.8 | 206 | 96.8 | 174 | 39.5 | 281 | 166 | 71.2 | 106 |
| CN(c1ncccc1CNc1nc(Nc2ccc3c(c2)CC(=O)N3)ncc1C(F)(F)F)S(C)(=O)=O + O=C(O)c1ccc(-c2c[nH]c3ncc(-c4ccccc4)cc23)cc1C1CCCC1 [GSK650394] (first compound 0.08 µM, partner dose 0.16 µM) | 116 | 53.5 | 295 | 236 | 183 | 188 | 166 | 68 | 200 | 91.9 |
| NC(=O)c1ccc(N(C(N)=O)c2c(F)cccc2F)nc1-c1ccc(F)cc1F + O=C(CCCCCCC(=O)Nc1ccccc1)NO [vorinostat] (first compound 0.4 µM, partner dose 0.08 µM) | 115 | 119 | 220 | 39.3 | 434 | 95.3 | 73.4 | 64.1 | 46.6 | 56.9 |
| C[C@]1(O)C[C@@H](c2nc(-c3ccc4ccc(-c5ccccc5)nc4c3)c3c(N)nccn32)C1 + NCC(=O)Nc1ccc(-n2nc(C(F)(F)F)cc2-c2ccc3c(ccc4ccccc43)c2)cc1 [OSU03012] (first compound 0.4 µM, partner dose 1 µM) | 92.8 | 62.6 | 58.8 | 205 | 237 | 139 | 124 | 80.4 | 195 | 168 |
| CN(c1ncccc1CNc1nc(Nc2ccc3c(c2)CC(=O)N3)ncc1C(F)(F)F)S(C)(=O)=O + C[C@@H]1CCN(C(=O)CC#N)C[C@@H]1N(C)c1ncnc2[nH]ccc12 [CP690550] (first compound 0.08 µM, partner dose 1 µM) | 128 | 163 | 64.6 | 25.3 | 160 | 99.9 | 140 | 80.5 | 137 | 145 |
| Cn1sc(=O)n(Cc2ccccc2)c1=O + O=C(O)c1ccc(-c2c[nH]c3ncc(-c4ccccc4)cc23)cc1C1CCCC1 [GSK650394] (first compound 0.4 µM, partner dose 0.16 µM) | 102 | 108 | 81.7 | 141 | 31 | 187 | 140 | 139 | 55.3 | 67.1 |
| CCN(CC)CCNC(=O)c1c(C)[nH]c(/C=C2\C(=O)Nc3ccc(F)cc32)c1C [sunitinib] + Oc1cc(-c2nc(-c3ccccc3)[nH]c2-c2ccncc2)ccc1Cl [L779450] (first compound 0.4 µM, partner dose 0.2 µM) | 112 | 98.5 | 45.3 | 42.3 | 171 | 210 | 59 | 68 | 153 | 156 |
| NC1(c2ccc(-c3nc4ccn5c(=O)[nH]nc5c4cc3-c3ccccc3)cc2)CCC1 + NC(=O)Nc1cc(-c2cccc(F)c2)sc1C(=O)N[C@H]1CCCNC1 [AZD7762] (first compound 0.4 µM, partner dose 0.02 µM) | 59.5 | 98.2 | 67.9 | 112 | 116 | 93.1 | 73 | 94.9 | 34.8 | 81.8 |
| CN(c1ncccc1CNc1nc(Nc2ccc3c(c2)CC(=O)N3)ncc1C(F)(F)F)S(C)(=O)=O + Cc1ccc(NC(=O)c2cccc(N(C)C)c2)cc1NC(=O)c1ccc(O)cc1 [ZM336372] (first compound 0.08 µM, partner dose 2 µM) | 195 | 94.7 | 252 | 234 | 40.3 | 70.4 | 80.8 | 125 | 98.3 | 71.7 |
| NC(=O)c1ccc(N(C(N)=O)c2c(F)cccc2F)nc1-c1ccc(F)cc1F + Nc1nc(F)nc2c1ncn2[C@@H]1O[C@H](CO)[C@@H](O)[C@@H]1O [fludarabine] (first compound 0.4 µM, partner dose 0.2 µM) | 97.4 | 400 | 160 | 85.3 | 137 | 726 | 1770 |  |  | 281 |
| C[C@@H](N)c1ccc(C(=O)Nc2ccnc3[nH]ccc23)cc1 + O=C(O)c1ccc2c(c1)nc(Nc1cccc(Cl)c1)c1ccncc12 [CX4945] (first compound 0.4 µM, partner dose 0.4 µM) | 278 | 194 | 291 | 128 | 108 | 125 | 56 |  |  | 118 |
| CC(=O)O[C@@]12CO[C@@H]1C[C@H](O)[C@@]1(C)C(=O)[C@H](O)C3=C(C)[C@@H](OC(=O)[C@H](O)[C@@H](NC(=O)OC(C)(C)C)c4ccccc4)C[C@@](O)([C@@H](OC(=O)c4ccccc4)[C@H]21)C3(C)C [Docetaxel] + Cn1c(=O)n(-c2ccc(C(C)(C)C#N)cc2)c2c3cc(-c4cnc5ccccc5c4)ccc3ncc21 [NVP-BEZ235] (first compound 0.0001 µM, partner dose 0.004 µM) | 616 | 683 | 258 | 205 | 97.2 | 788 | 299 |  |  | 213 |

Whole records as entered above. Values in the order: cleaved PARP positive nuclei fraction (MZ2-MEL) [%]	cleaved PARP positive nuclei fraction (MeWo) [%]	cleaved PARP positive nuclei fraction (RPMI7951) [%]	cleaved PARP positive nuclei fraction (RVH-421) [%]	cleaved PARP positive nuclei fraction (SkMel28) [%]	cleaved PARP positive nuclei fraction (SkMel2) [%]	cleaved PARP positive nuclei fraction (SkMel30) [%]	cleaved PARP positive nuclei fraction (SkMel5) [%]	cleaved PARP positive nuclei fraction (UACC257) [%]	cleaved PARP positive nuclei fraction (UACC62) [%]
CN(c1ncccc1CNc1nc(Nc2ccc3c(c2)CC(=O)N3)ncc1C(F)(F)F)S(C)(=O)=O + Cc1ccc(NC(=O)c2cccc(N(C)C)c2)cc1NC(=O)c1ccc(O)cc1 [ZM336372] (first compound 0.08 µM, partner dose 2 µM) in the list: 195	94.7	252	234	40.3	70.4	80.8	125	98.3	71.7
CS(=O)(=O)c1ccc(C(=O)Nc2ccc(Cl)c(-c3ccccn3)c2)c(Cl)c1 [vismodegib] + O=C1NC(=O)/C(=C/c2ccc(-c3ccc(F)cc3O)o2)S1 [AS252424] (first compound 1 µM, partner dose 1 µM) in the list: 128	56.7	75.4	91.3	33.1	39.6	54.5	77.1	207	101
